PubChem BioAssay AID652243, Drosophila RNAi Screening Center | 2013
The screen tested about 24,000 reagents; this is a random part of those with a known target gene and a result. In the full data, 246 (1%) were called active. 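Plates not normalised; calls are printed but the firefly/Renilla ratio behind them is not deposited; fold cut for lowering reported inconsistently.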 Raw values are not corrected between plates. A plus sign joins genes that one reagent is predicted to hit. Not stated in the record: the amount of reagent.

- Purpose: 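Fly genes required for human androgen receptor driven transcription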 (primary screen)
- Cells: Drosophila S2R+ cells
- Reagent: long dsRNA against Drosophila genes
- Duration: 72 h (48 h, then 24 h hormone)
- Treatment: synthetic androgen R1881 at 10 nM for 24 h
- Read-out: 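Per-well raw luminescence of the androgen-driven firefly reporter and of the Renilla control, two replicates each, without normalisation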
- Reading the numbers: firefly reporter light: higher = more light from androgen-responsive reporter; Renilla control light: higher = more constitutive control signal (cell number, transfection)
- Call rule: 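Across duplicate plates, a knock-down whose log firefly/Renilla ratio shifted a set fold down or up from the GFP/LacZ control mean was a hit; the downward cut appears as both 1.5 and 3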
- Calls: active = hit: reporter lowered or raised; inactive = no hit

predicted target	amplicon	firefly reporter light, replicate 1	firefly reporter light, replicate 2	Renilla control light, replicate 1	Renilla control light, replicate 2	call
CG42613	DRSC13332	28559	41399	1.83e5	1.67e5	inactive
CG42613	DRSC14769	3.11e5	2.34e5	3.46e6	3.22e6	inactive
CG42613	DRSC15802	85437	68667	6.54e5	6.05e5	inactive
CG42613	DRSC22613	8.04e5	7.36e5	1.37e6	1.03e6	inactive
CG42613	DRSC25089	6.26e5	1.03e6	4.88e5	9.72e5	inactive
CG42613	DRSC26862	4.26e5	3.30e5	7.18e5	5.62e5	inactive
eIF4G2	DRSC14207	1.16e5	1.48e5	1.11e6	1.29e6	inactive
eIF4G2	DRSC21739	4.27e5	4.46e5	5.10e5	6.17e5	inactive
CG16710	DRSC15136	2.23e5	2.30e5	3.01e6	1.85e6	inactive
CG14014	DRSC02345	54852	1.13e5	8.20e5	8.27e5	inactive
CG32750	DRSC18848	2.66e5	3.63e5	2.18e6	2.65e6	inactive
par-6	DRSC20359	91525	94084	5.78e5	6.93e5	inactive
par-6	DRSC29863	7.46e5	5.99e5	1.84e6	1.58e6	inactive
Prp16	DRSC19538	35878	34161	3.81e5	3.69e5	inactive
Prp16	DRSC19542	3.34e5	3.97e5	3.88e6	4.37e6	inactive
CG12643	DRSC17849	3.81e5	4.36e5	3.77e6	3.54e6	inactive
CG12643	DRSC24898	7.76e5	8.20e5	1.21e6	1.16e6	inactive
RpS10b	DRSC19561	2.29e5	2.04e5	1.47e6	1.65e6	inactive
Cpr	DRSC03293	8.62e5	9.08e5	2.06e6	2.03e6	inactive
Cpr	DRSC28411	4.02e5	6.89e5	9.28e5	1.43e6	inactive
Su(var)205	DRSC03446	7.77e5	7.07e5	2.04e6	2.05e6	inactive
thetaTry	DRSC07705	2.92e5	1.80e5	1.57e6	1.16e6	inactive
thetaTry	DRSC29830	5.18e5	5.01e5	1.55e6	1.98e6	inactive
MFS14	DRSC06524	5.77e5	7.36e5	1.70e6	2.35e6	inactive
MFS14	DRSC29787	3.30e5	3.32e5	6.89e5	5.60e5	inactive
Hex-A	DRSC18259	1.87e5	1.85e5	1.85e6	1.81e6	inactive
Hex-A	DRSC25354	6.92e5	3.26e5	5.44e5	4.59e5	inactive
Hex-A	DRSC39259					inactive
CG3355	DRSC00598	1.09e5	1.25e5	9.70e5	8.04e5	inactive
CG12081	DRSC17802	79952	56960	5.25e5	6.59e5	inactive
Gem3	DRSC11144	2.03e5	1.95e5	2.11e6	1.88e6	inactive
Gyf	DRSC17202	38314	44045	4.11e5	3.52e5	inactive
Gyf	DRSC28907	4.27e5	4.23e5	7.97e5	9.91e5	inactive
CG31638	DRSC02269	61889	43576	1.09e6	1.16e6	active
CG31638	DRSC03259	90933	91255	1.07e6	1.01e6	inactive
CG31638	DRSC25082	7.05e5	6.60e5	1.02e6	1.23e6	inactive
mRpL49	DRSC19908	5.55e5	5.36e5	3.66e6	3.97e6	inactive
CG5623	DRSC15848	2.24e5	1.67e5	3.20e6	2.88e6	inactive
CG9044	DRSC03130	7.92e5	7.77e5	1.44e6	1.46e6	inactive
CG10341	DRSC02040	1.28e6	1.03e6	1.50e6	1.61e6	inactive
Amacr	DRSC03198	1.04e6	1.06e6	2.00e6	2.37e6	inactive
PolE1	DRSC16112	25203	31264	4.40e5	4.37e5	inactive
PolE1	DRSC27613	2.58e5	2.99e5	2.46e5	5.73e5	inactive
Dbp80	DRSC22034	6.51e5	5.80e5	2.24e6	2.11e6	inactive
ECSIT	DRSC12348	88705	37520	1.55e6	1.33e6	inactive
CG32278 + CG14963	DRSC22203	5.74e5	5.20e5	2.02e6	1.99e6	inactive
CG1812	DRSC20557	1.05e5	69594	7.97e5	6.64e5	inactive
CG1812	DRSC26769	3.57e5	3.28e5	5.53e5	6.01e5	inactive
CG16775	DRSC10225	3.18e5	2.74e5	3.26e6	3.21e6	inactive
CG4653	DRSC19909	3.32e5	3.19e5	3.05e6	2.78e6	inactive
CG4653	DRSC22857	6.02e5	8.05e5	1.59e6	2.15e6	inactive
CG4653	DRSC24329	6.46e5	8.83e5	9.37e5	1.18e6	inactive
Dhc93AB	DRSC16644	4.29e5	5.14e5	3.25e6	3.83e6	inactive
Dhc93AB	DRSC28116	6.20e5	4.21e5	1.94e6	1.97e6	inactive
CG18477 + CG31780	DRSC01955	1.03e5	1.63e5	1.47e6	1.91e6	inactive
Rab8	DRSC11261	65457	63006	4.16e5	3.02e5	inactive
CG12516	DRSC14524	2.68e5	3.00e5	3.26e6	3.56e6	inactive
dpr8	DRSC19406	5.36e5	6.44e5	3.77e6	3.92e6	inactive
dpr8	DRSC19600	5.00e5	4.50e5	3.99e6	4.12e6	inactive
dpr8	DRSC19938	5.04e5	6.20e5	2.74e6	2.48e6	inactive
dpr8	DRSC19939	5.27e5	4.41e5	3.55e6	4.22e6	inactive
Idh	DRSC10779	8.02e5	6.95e5	1.24e6	1.30e6	inactive
CG13075	DRSC09958	2.02e5	1.69e5	1.85e6	1.93e6	inactive
CG13075	DRSC28458	1.57e5	3.74e5	5.36e5	7.35e5	inactive
CG11970	DRSC14157	49360	64519	2.67e5	2.47e5	inactive
beat-IV	DRSC14195	48781	54831	5.01e5	6.32e5	inactive
beat-IV	DRSC14673	2.23e5	1.96e5	2.35e6	2.26e6	inactive
CAHbeta	DRSC14449	72611	50624	2.93e5	2.99e5	inactive
CG8925	DRSC16455	2.16e5	2.92e5	2.59e6	3.07e6	inactive
CG8925	DRSC16456	1.91e5	2.40e5	3.58e6	3.56e6	inactive
CG8925	DRSC16457	3.09e5	3.31e5	3.37e6	3.42e6	inactive
CG14692	DRSC14915	1.77e5	2.17e5	2.13e6	2.26e6	inactive
Osi20	DRSC12568	1.13e5	1.13e5	2.84e6	2.32e6	inactive
Osi20	DRSC28630	4.17e5	4.02e5	1.04e6	8.51e5	inactive
